Reference: paper PMC3049581, “Development and evaluation of human AP endonuclease inhibitors in melanoma and glioma cell lines” (British Journal of Cancer, 2011)

Assay: Fluorescence quenching assay
Conditions: 100 μM, >50% decrease in fluorescence = quencher

Row | Compound | Quencher (intrinsic fluorescence quenching) | Quencher (intrinsic fluorescence quenching) (listed as compound 4)
1 | O=C(O)c1cc2cc(F)ccc2[nH]1 [Compound 1, 5-fluoro-1H-indole-2-carboxylic acid] | no | 
2 | O=C(CCCn1c(SCC(=O)Nc2nccs2)nc2ccsc2c1=O)NCc1ccc2c(c1)OCO2 [Compound 5, N-(benzo(1,3)dioxol-5-ylmethyl)-4-(2-oxo-4-(thiazol-2-ylcarbamoylmethylsulfanyl)-9-thia-3,5-diazabicyclo(4.3.0)nona-4,7,10-trien-3-yl)-butanamide] | no | 
3 | Cc1ccc(-c2nc(S(=O)(=O)c3ccccc3)c(SCC(=O)Nc3ccc(F)cc3)o2)cc1 [Compound 4, N-(4-fluorophenyl)-2-(4-phenylsulfonyl-2-(p-tolyl)oxazol-5-yl) sulfanyl-acetamide] | no | did not reveal any quenching effect
4 | O=C(OCC(=O)N1NC(c2ccc3ccccc3c2)=CC1c1ccccc1)c1ccc([N+](=O)[O-])s1 (centres unmarked) [Compound 3, (3-(2-naphthyl)-5-phenyl-2,5-dihydropyrazol-1-yl) carbonylmethyl 5-nitrothiophene-2-carboxylate] | no | 
5 | O=C(COc1ccc2ccccc2c1)Nc1ccc(O)c(-c2nc3ccccc3o2)c1 [Compound 2, N-(3-benzooxazol-2-yl-4-hydroxy-phenyl)-2-(2-naphthyloxy)acetamide] | no | 
6 | N#CC(C(=O)c1cc2ccccc2o1)c1nc2ccccc2s1 (centres unmarked) [Compound 7, 3-benzofuran-2-yl-2-benzothiazol-2-yl-3-oxo-propanenitrile] | no | 
7 | O=C(CSc1nc2ccccc2s1)CSc1nc2ccccc2s1 [Compound 6, 1,3-bis(1,3-benzothiazol-2-ylthio)acetone] | no | 
